From PubChem BioAssay AID2685 (National Center for Advancing Translational Sciences (NCATS), 2010)
Some of the results follow. Shown are side measurements of this screen, not its main read-out; they come without a call. Most of these compounds were active or inconclusive in the main read-out, so they are no random draw. The note in brackets gives the kind of curve behind each potency; many fits are weak.

Assay: qHTS Assay for Lipid Storage Modulators in Drosophila S3 Cells;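 for cell number change: cells counted by Cell Tracker Red CMTPX staining in the red channel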
Conditions: BODIPY lipid droplet fluorescence, 18-24 h; for cell number change: measured here: cell count max response, cells fed with added oleic acid
Procedure, shortened: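 Laser-scanning cytometry quantifies lipid droplet accumulation (500–530 nm total intensity; droplet/cell object ratio) in oleic acid-fed (400 uM added) Drosophila S3 cells treated with a concentration series. 20 uM Triacsin C defined 100% inhibition.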

[1] = measured here: lipid fluorescence (Fed channel) AC50, cells fed with added oleic acid
[2] = measured here: cell number channel AC50, cells fed with added oleic acid

SMILES	cell number change [%]	AC50 [1]	AC50 [2]
COc1cc(/C=C/C(=O)O)cc2c1OCCO2	-3.38	0.731 µM [falling, full curve]	–
COC(=O)c1cc2sccc2n1Cc1ccc(C)cc1	-26.5	32.6 µM [falling, single point]	–
COc1ccc(-c2csc(NC(=O)c3ccccc3F)n2)cc1	13.1	–	1.46 µM [rising, partial curve, poor fit]
CCOC(=O)C(C)n1cnc2c(nnn2-c2cccc(Cl)c2)c1=O (centres undefined)	-1.71	20.6 µM [rising, single point]	–
CCOc1ccc(S(=O)(=O)NC(=O)c2ccccc2)cc1	27.9	0.00461 µM [rising, full curve, poor fit]	–
Cc1ccc(OCc2ccc(C(=O)N3CCOCC3)cc2)cc1C	-32.6	–	29.1 µM [falling, single point]
CCOc1ccc(C(C)=O)cc1COC(=O)c1ccc2c(c1)NC(=O)CS2	1.66	6.51 µM [rising, single point]	–
CC(C)Cn1c(Cc2ccccc2)n[nH]c1=S	20.4	–	–
CCCn1ncc(CN2CCC(n3nccc3NC(=O)c3ccccc3OC)CC2)c1C	2.83	–	–
COc1ccc(CC(=O)Nc2ncc([N+](=O)[O-])s2)cc1OC	9.22	0.731 µM [rising, full curve, poor fit]	–
COc1cc(OC)nc(NC(=O)COC(=O)c2cccc(Cl)c2)n1	26.8	–	–
COc1ccc(NC(=O)c2nn(C)c(=O)c3ccccc23)cc1S(=O)(=O)Nc1ccccc1Cl	125	3.66 µM [rising, partial curve]	2.31 µM [rising, full curve]
O=C(c1cccc(S(=O)(=O)N2CCOCC2)c1)N(Cc1nnc(-c2ccccc2Cl)o1)C1CC1	-99.1	8.2 µM [falling, partial curve]	16.4 µM [falling, single point]
COC(=O)c1cccc(NC(=O)c2ccc(S(=O)(=O)N3CCN(C)CC3)cc2)c1	–	1.84 µM [rising, partial curve, poor fit]	–
Cc1ccccc1C(=O)NC[C@@H]1CCCN2CCCC[C@H]12	21.6	2.91 µM [rising, single point]	–
Cc1cc(C)nc(NS(=O)(=O)c2ccc(N/C=C/C(=O)c3ccc(Cl)cc3)cc2)n1	-56.7	16.4 µM [falling, single point]	29.1 µM [falling, single point]

Some of the entries so far, as a markdown table:

| SMILES | cell number change [%] | AC50 [1] | AC50 [2] |
| --- | --- | --- | --- |
| COc1ccc(-c2csc(NC(=O)c3ccccc3F)n2)cc1 | 13.1 | – | 1.46 µM [rising, partial curve, poor fit] |
| COc1ccc(CC(=O)Nc2ncc([N+](=O)[O-])s2)cc1OC | 9.22 | 0.731 µM [rising, full curve, poor fit] | – |

Additional structures

SMILES	cell number change [%]	AC50 [1]	AC50 [2]
NC(=O)COC(=O)c1ccc(S(=O)(=O)NCc2ccco2)cc1	48	–	0.0651 µM [falling, partial curve, poor fit]
CN1CCN(c2ccccc2NC(=O)c2ccc(-c3cccc([N+](=O)[O-])c3)o2)CC1	-8.99	32.6 µM [falling, single point]	–
CC(=O)Nc1ccc(Nc2nc(-c3sc(C)nc3C)cs2)cc1	-37	29.1 µM [falling, single point]	0.326 µM [falling, full curve]
Cn1c(SCc2ccc(C#N)cc2)nnc1-c1cccc(Cl)c1	3.2	–	2.06 µM [rising, single point]
COC(=O)C1CCN(C(=O)COC(=O)c2oc3ccccc3c2C)CC1	33	18.4 µM [rising, partial curve, poor fit]	13 µM [rising, single point]
CC(=O)c1ccc(NS(=O)(=O)c2ccc(C(C)(C)C)cc2)cc1	-19.3	25.9 µM [falling, single point]	–
O=C(CSc1ccc2nnc(-c3cccnc3)n2n1)NCc1ccc2c(c1)OCO2	–	0.82 µM [rising, full curve]	1.03 µM [rising, partial curve]
C=CCc1ccccc1Oc1cc(OC)nc(N)n1	3.34	2.59 µM [rising, full curve]	–
COc1ccc(NC(=O)COc2nsnc2N2CCCCC2)cc1	-2.18	2.59 µM [rising, partial curve]	–
COc1ccc(C(=O)NCCc2nnc3ccc(SCC(=O)Nc4ccccc4F)nn23)cc1	-13	–	–
Cc1cccc(NC(=O)c2nc[nH]c2C(=O)N[C@@H](CC(C)C)C(=O)OC(C)(C)C)c1	-1.71	–	–
CC1CCN(S(=O)(=O)c2ccc3c(c2)NC(=O)CS3)CC1	7.34	–	0.00651 µM [rising, full curve, poor fit]
CCOc1ccc(S(=O)(=O)c2c[nH]c3ccc(C)cc3c2=O)cc1	25.2	16.4 µM [rising, partial curve, poor fit]	–
CC(OC(=O)CCCc1nc2ccccc2s1)C(N)=O (centres undefined)	–	0.82 µM [falling, full curve, poor fit]	–
CNC(=S)N(CCCn1ccnc1)Cc1c(F)cccc1Cl	–	4.61 µM [falling, single point]	–
